Several values for one entry are separate records, joined by “and”; a condition that tells them apart may be missing. Equal entries are not always repeated. The whole screen tested about 78,000 compounds, of which about 1,800 (2.3%) were called active. Inconclusive results, whose numbers are uncertain, are shown with a selection of clear calls. No stated cut-off is given here; in the data, active means inhibition above about 30%; inconclusive means mostly about 10% to 28%; inactive means weaker than that.
target: Interleukin-1 receptor-like 1 (Homo sapiens) (UniProt Q01638); assay: blocks human ST2 binding to IL-33, primary screen, biochemical, AlphaLISA (AID 1259354); conditions: AlphaLISA ST2-Fc/biotin-IL-33 interaction, 1 h; at 17 µM, stronger effect = higher value

Chains of the proteins cited; added tags and fusions are not shown. Lines headed by an entry give the natural chain unless they say otherwise; changes in a name come on top.
UniProt Q01638: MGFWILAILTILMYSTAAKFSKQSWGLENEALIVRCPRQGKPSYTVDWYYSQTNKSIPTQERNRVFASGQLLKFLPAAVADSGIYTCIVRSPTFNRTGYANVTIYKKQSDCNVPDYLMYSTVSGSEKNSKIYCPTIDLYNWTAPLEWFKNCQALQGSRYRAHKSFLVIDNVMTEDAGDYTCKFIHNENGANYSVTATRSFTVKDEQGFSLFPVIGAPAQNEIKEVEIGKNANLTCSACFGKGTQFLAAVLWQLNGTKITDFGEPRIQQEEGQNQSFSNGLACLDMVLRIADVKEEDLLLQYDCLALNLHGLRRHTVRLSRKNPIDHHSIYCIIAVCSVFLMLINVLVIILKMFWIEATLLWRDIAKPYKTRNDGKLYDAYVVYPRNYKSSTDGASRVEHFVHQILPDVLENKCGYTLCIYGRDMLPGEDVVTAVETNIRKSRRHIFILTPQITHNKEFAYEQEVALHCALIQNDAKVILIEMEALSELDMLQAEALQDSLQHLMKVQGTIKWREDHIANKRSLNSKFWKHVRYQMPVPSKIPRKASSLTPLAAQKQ

Row | SMILES | inhibition
1 | O=C(O)c1cc(N=Cc2cc(Br)cc(Cl)c2O)ccc1O | inconclusive: 21%
2 | O=S(=O)(c1ccc(Cl)cc1)c1cc(O)ccc1O | inconclusive: 17%
3 | CCn1c(/C=C/c2ccc(OC)cc2)nc2ccccc21 | inconclusive: 25%
4 | Cc1ccccc1C1(CC(=O)N2CCCN(c3ncccn3)CC2)CC(=O)N(Cc2ccccc2)C1=O (configuration not stated) | inconclusive: 10%
5 | O=C(CN1CCC(N2CCCC2=O)CC1)N1CCOc2ccccc21 | inconclusive: 12%
6 | COc1cc2c(cc1-c1nccn1Cc1ccc(S(N)(=O)=O)cc1)CCC2 | inconclusive: 17%
7 | Cc1cccc2nc(C(=O)NCCSc3nnnn3C)c(F)n12 | inactive
8 | CCOC(=O)CC1(S(=O)(=O)c2ccc(F)cc2)CCN(Cc2ccc(C)o2)CC1 | inactive
9 | CC1=C[C@@H](CNCCN2CCOCC2)[C@H](C(C)C)C[C@H]1Cc1nnc(-c2cccnc2)o1 | inactive
10 | O=[N+]([O-])c1ccc(/C=C/c2ccc3ccccc3n2)o1 | active: 67%
11 | COC(=O)c1ccc(C(=O)N2CC(=O)N(Cc3cccnc3)CC(OCc3ccccc3)C2)cc1 (configuration not stated) | inconclusive: 21%
12 | COc1ccc([N+](=O)[O-])cc1NCN1C(=O)NC(C)(C)C1=O | inactive
13 | O=c1ccc(=O)n(CN2CCN(c3ccc([N+](=O)[O-])cc3)CC2)[nH]1 | inconclusive: 11%
14 | CCOCCn1nc(C)cc1C(=O)N1CCCC2(CNC(=O)O2)C1 (configuration not stated) | inconclusive: 24%
15 | CCc1nc(-c2ccccc2)nc(C)c1C | inconclusive: 11%
16 | Cn1c(=O)c2c(nc(N3CCCCCC3)n2Cc2cccc(Br)c2)n(C)c1=O | inconclusive: 17%
17 | CCOC(=O)c1[nH]c2ccccc2c1NC(=O)C(C)Oc1ccccc1 (configuration not stated) | inconclusive: 10%
18 | Cc1[nH]nc(SCC(=O)Nc2ccc(F)cc2F)c1[N+](=O)[O-] | inactive
19 | COc1ccc(N2C(=O)C3CCCN3C2c2sccc2C)cc1Cl (configuration not stated) | inconclusive: 11%
20 | COc1ccc(N(C)C(=O)c2cc3cc4ccc(OC)cc4nc3s2)cc1 | inconclusive: 17%
21 | CCOc1ccc(S(=O)(=O)N2CCSC2c2cc(OC)ccc2OC)cc1 (configuration not stated) | inactive
22 | O=C(c1ccccc1)N1CCN(c2nc(-c3ccccc3)cs2)CC1 | inconclusive: 13%
23 | COCC(=O)N1CCCN(Cc2ccnc(C(C)C)n2)CC1 | inconclusive: 25%

Row | SMILES | inhibition
24 | CCCSc1nc(N)c2c3c(sc2n1)CCC(C)C3 (configuration not stated) | inconclusive: 17%
25 | COc1ccc(OC)c(C2SCCN2C(=O)c2cc3cc(Br)ccc3oc2=O)c1 (configuration not stated) | inconclusive: 16% and inconclusive: 15%
26 | CCOC(=O)CSc1nc2c(c(C3CC=CCC3)c1C#N)CCC2 (configuration not stated) | inactive
27 | O=C(Nc1ccc(-c2noc(-c3ccccc3[N+](=O)[O-])n2)cc1)c1cccc(Br)c1 | inactive
28 | Clc1ccc(SCCc2nc3ccccc3o2)cc1 | inconclusive: 12%
29 | CCN(CCn1cccn1)Cc1cccc2c1OCO2 | inactive
30 | O=C(c1ccccc1Br)N1CCN=C1SCc1cccnc1 | inconclusive: 13%
31 | Cc1cccc(NC(=O)c2ccc(Br)o2)n1 | inconclusive: 15%
32 | COc1cccc(-n2cc(CN(C)Cc3cnn(C)c3)cn2)c1 | inconclusive: 20%
33 | O[C@@H]1CN(c2ncnc3[nH]ccc23)CC[C@H]1N1CCN(c2ccccc2F)CC1 | inconclusive: 15%
34 | CC(=O)OC(C)(C)/C=C/C(=O)[C@](C)(O)C1[C@H](O)C[C@@]2(C)[C@@H]3CC=C4[C@@H](C[C@H](O[C@@H]5O[C@H](CO)[C@@H](O)[C@H](O)[C@H]5O)C(=O)C4(C)C)[C@]3(C)C(=O)C[C@]12C (some centres not stated) | inactive
35 | Cc1ccc(C(=O)NCCc2ccc(S(N)(=O)=O)cc2)cc1NC(=O)C1=CSCCO1 | inconclusive: 11%
36 | COc1ccc(/C=C/C(=O)O)c(O[C@@H]2O[C@H](CO)[C@@H](O)[C@H](O)[C@H]2O)c1 | inconclusive: 24%
37 | O=C1CC(/C=C/c2ccco2)=Nc2ccccc2N1 | inconclusive: 23%
38 | Cc1cc(NC(=O)Cn2c(=O)n(-c3ccc(C)c(C)c3)c(=O)c3c4c(sc32)CCC4)n[nH]1 | inactive
39 | Cc1cc(C)cc(N2CCN(C(=O)C3CCC(=O)N(C4CCCC4)C3)CC2=O)c1 (configuration not stated) | inactive
40 | O=C(NC1CCCN(CCc2ccccc2)C1)c1cc2ccccc2o1 (configuration not stated) | inconclusive: 11%
41 | COc1ccc(S(=O)(=O)N2CCN(c3nc(C)cc(Nc4ccccc4)n3)CC2)cc1C | active: 34%
42 | CCOC(=O)Cn1c(=O)c2c(nc3n2CCN3c2cc(C)cc(C)c2)n(C)c1=O | inconclusive: 18%
43 | CC(=O)c1ccc2c(c1)Cc1cc(C(C)=O)ccc1-2 | inconclusive: 10%
44 | Oc1ccc(-c2nc3ncccn3c2Nc2ccc(Cl)cc2)cc1 | inconclusive: 16%
45 | Cc1cccc(NC(c2ccccc2F)c2ccc3cccnc3c2O)n1 (configuration not stated) | inconclusive: 13%
46 | Nc1ccc(-c2cc(NC3CCCC3)nc3[nH]ccc23)nc1 | inconclusive: 21%

Row | SMILES | inhibition
47 | O=C(c1ccc2nc(C3CCCCC3)oc2c1)N1CCCCC1c1ccccn1 (configuration not stated) | inconclusive: 16%
48 | CC(C)CN1CC[C@H](c2nc3ccc(F)cc3[nH]2)C1 | inconclusive: 14%
49 | O=c1/c(=C\c2cccc([N+](=O)[O-])c2)sc2nc3ccccc3n12 | inactive
50 | CCOc1ccc(-n2c(=O)[nH]cc(C(=O)Nc3ccc4c(c3)OCO4)c2=O)cc1 | inactive
51 | CCCn1cnc2c1CN(C(=O)c1ccccc1OC)[C@H](C(=O)OC)C2 | inactive
52 | CCCn1c(CNC(=O)CC)nc2ccccc21 | inactive
53 | CCc1cn[nH]c1C1CCN(C(=O)c2cccc(O)c2C)CC1 | inactive
54 | COc1cccc(CNC(=O)CN2CCCN(Cc3ccc(C)cc3)S2(=O)=O)c1 | inactive
55 | CCSCCOC(=O)C1=C(C)NC2=C(C(=O)CCC2)C1c1ccc(N(CC)CC)cc1 (configuration not stated) | inconclusive: 18%
56 | CN(Cc1ncc[nH]1)C(=O)c1ncc(F)cc1F | inconclusive: 12%
57 | CCc1nc2cccnc2n1C1CCN(S(=O)(=O)c2ccc(C)cc2)CC1 | inconclusive: 22%
58 | Nc1ccccc1S(=O)(=O)NCC(=O)N1CCCC1 | inactive
59 | CCC(NC(=O)c1ccc(F)cc1)c1ccccc1 (configuration not stated) | inconclusive: 14%
60 | N#C/C(=C/c1ccc(O)cc1)c1nc(-c2ccc(Cl)c(Cl)c2)cs1 | inconclusive: 14%
61 | CSCCC(=O)NC1CCCN(CCCc2ccccc2)C1 (configuration not stated) | inactive
62 | COc1ccccc1NCN1C(=O)c2ccc(Br)cc2C1=O | inactive
63 | CCOC(=O)N1CCC(NC(=O)C2CC(=O)N(CC(C)C)C2)CC1 (configuration not stated) | inconclusive: 10%
64 | O=C(C1CC1)N1CCc2cc(Br)cc(S(=O)(=O)NC3CCCc4ccccc43)c21 (configuration not stated) | inconclusive: 14%
65 | COc1cc(NC(=O)c2cc(-c3ccc(Br)cc3)on2)c(OC)cc1Cl | inactive
66 | CCOc1ccccc1NC(=O)CC1Sc2ccc(C(F)(F)F)cc2NC1=O (configuration not stated) | inactive
67 | COc1ccc(-n2cccn2)c([C@@H]2C[C@H](NC(C)=O)C[C@H](CC(C)C)O2)c1 | inconclusive: 22%
68 | O=C(NCc1cnn2ccccc12)c1ccccc1N1CCS(=O)(=O)CC1 | inconclusive: 19%
69 | O=C1NN(c2ccc(F)cc2)C(=O)/C1=C\c1cccc([N+](=O)[O-])c1 | inconclusive: 17%

A few values from above.
inhibition with Cc1[nH]nc(SCC(=O)Nc2ccc(F)cc2F)c1[N+](=O)[O-] is entered as inactive
inhibition with O=C1CC(/C=C/c2ccco2)=Nc2ccccc2N1 is entered as inconclusive: 23%
inhibition with O=C(NCc1cnn2ccccc12)c1ccccc1N1CCS(=O)(=O)CC1 is entered as inconclusive: 19%
inhibition with O=[N+]([O-])c1ccc(/C=C/c2ccc3ccccc3n2)o1 is entered as active: 67%
inhibition with COc1cccc(CNC(=O)CN2CCCN(Cc3ccc(C)cc3)S2(=O)=O)c1 is entered as inactive

Sorted by number of heavy atoms (falling): part of the list above
Row | SMILES | inhibition
55 | CCSCCOC(=O)C1=C(C)NC2=C(C(=O)CCC2)C1c1ccc(N(CC)CC)cc1 (configuration not stated) | inconclusive: 18%
69 | O=C1NN(c2ccc(F)cc2)C(=O)/C1=C\c1cccc([N+](=O)[O-])c1 | inconclusive: 17%
61 | CSCCC(=O)NC1CCCN(CCCc2ccccc2)C1 (configuration not stated) | inactive

Additional records follow:

Row | SMILES | inhibition
70 | COC(=O)c1sc2ccccc2c1NC(=O)c1ccc(Br)cc1 | inactive
71 | O=C(c1ccc(Cl)cc1)N1CCN(c2ccc([N+](=O)[O-])c3ncccc23)CC1 | inactive
72 | CN1CCN(S(=O)(=O)c2cc(C(=O)Nc3ccccc3[N+](=O)[O-])ccc2Cl)CC1 | inconclusive: 10%
73 | O=C1CCCN1CCCNc1nc(-c2ccc(Cl)cc2)nc2c1CNC2 | inconclusive: 20%
74 | O=C(Cc1ccc([N+](=O)[O-])cc1)N1CCN(c2ccccn2)CC1 | inconclusive: 20%
75 | Cc1ccc(N2C(=O)C3CCCCC3C2=O)cc1F (configuration not stated) | inactive
76 | CC1=NN(c2ccc(F)cc2)C(=O)/C1=C/c1ccc(OCc2ccccc2)cc1 | inconclusive: 23%
77 | COC(=O)[C@@H]1Cc2nc[nH]c2CN1C(C)=O | inconclusive: 15%
78 | C=CCc1cc(/C=C2/C(=O)N(c3ccccc3)N=C2C)cc(OCC)c1O | inconclusive: 14%
79 | COc1ccc(S(=O)(=O)N2CCN(c3nc(C)cc(Nc4ccc(C)cc4)n3)CC2)cc1C | inconclusive: 18%
80 | CC1CCCN(C(=O)CCS(=O)(=O)c2cccc3nsnc23)C1 (configuration not stated) | inactive
81 | CN1CCN(c2nc3c(c(=O)[nH]c(=O)n3C)n2CCSc2nc3ccccc3o2)CC1 | inconclusive: 14%
82 | O=C(Cn1cnc2c(cnn2-c2ccc(F)cc2)c1=O)N1CCc2ccccc21 | inactive
83 | CCc1nc2nc(C)[nH]n2c(=O)c1NC(=O)Nc1cccc(SC)c1 | inactive
84 | COc1ccc(COC(=O)C2=C(C)Nc3nc4ccccc4n3C2c2ccccc2)cc1 (configuration not stated) | inconclusive: 10%
85 | COc1ccccc1CNC(=O)C(C)Sc1ccc(Cl)cc1 (configuration not stated) | inactive
86 | Cc1ccc(C(=O)CN2C3=NCCCN3c3ccccc32)cc1 | inactive
87 | O=C1SC(Nc2ccc(I)cc2)C(=O)N1c1ccccc1 (configuration not stated) | inactive
88 | O=[N+]([O-])c1ccc(N2CCN(CCO)CC2)c(C=Nc2ccc3c(c2)oc2ccccc23)c1 | inconclusive: 13%
89 | CCc1ccc(N2C(=O)C3N=NN(CC(=O)Nc4ccc5c(c4)OCCO5)C3C2=O)cc1 (configuration not stated) | inactive
90 | O=C(CSc1nc2c(c(=O)n1-c1ccccc1)SCC2)Nc1ccccc1C(F)(F)F | inconclusive: 15%
91 | COCCCN1C(=O)N(Cc2ccccn2)C(=O)C12CCN(Cc1cc3ccccc3o1)CC2 | inconclusive: 23%
92 | O=C1CC(Sc2nnnn2-c2ccccc2)C(=O)N1c1ccc(Cl)c(Cl)c1 (configuration not stated) | inconclusive: 10%

From PubChem BioAssay AID1259354 (Paczesny and Yang Labs, IUPUI and University of Michigan, 2018)
